Measurements: patent US7608688B2, “HIV-1 protein associated with broadly reactive neutralizing antibody response” (The Henry M. Jackson Foundation for the Advancement of …, priority 1998, dated 2009)
Not every detail of the peptide structures is certain; ends, links or a residue may be inferred. Bridge positions count the residues as written; N and C are the ends. Peptide text beside a SMILES is read from it.

Tests used:
Type in all cases: cell-based, HIV-1
[1] = test system: clone R2 pseudovirus; test: Peptide blocking of Reference 2 neutralization of clone R2 pseudovirus
[2] = test system: clone R2 pseudovirus; test: Cyclic R2 V3 peptide inhibition of neutralization of R2 pseudovirus by MACS sera; conditions: peptide 15 μg/ml; ratio of 50% neutralization titers without/with peptide; ten sera tested twice
[3] = test system: pseudoviruses expressing MACS patient envelopes; test: Cyclic R2 V3 peptide inhibition of Reference 2 neutralization of MACS patient envelope pseudoviruses; conditions: peptide 15 μg/ml; six pseudoviruses, two or three tests each

Compound: CC[C@H](C)[C@@H]1NC(=O)[C@H](CC(=O)O)NC(=O)CNC(=O)[C@H]([C@@H](C)CC)NC(=O)[C@H]([C@@H](C)CC)NC(=O)[C@H](CCC(N)=O)NC(=O)CNC(=O)[C@H]([C@@H](C)O)NC(=O)[C@H]([C@@H](C)O)NC(=O)[C@H](Cc2ccc(O)cc2)NC(=O)[C@H](Cc2ccccc2)NC(=O)[C@H](C)NC(=O)[C@H](CCCNC(=N)N)NC(=O)CNC(=O)[C@@H]2CCCN2C(=O)CNC(=O)[C@H](CCSC)NC(=O)[C@@H]2CCCN2C(=O)[C@H]([C@@H](C)CC)NC(=O)[C@H](CO)NC(=O)[C@H](CCCCN)NC(=O)[C@H](CCCNC(=N)N)NC(=O)[C@H]([C@@H](C)O)NC(=O)[C@H](CC(N)=O)NC(=O)[C@H](CC(N)=O)NC(=O)[C@H](CC(N)=O)NC(=O)[C@@H]2CCCN2C(=O)[C@H](CCCNC(=N)N)NC(=O)[C@H](CO)NC(=O)[C@@H](N)CSSC[C@@H](C(=O)O)NC(=O)[C@H](Cc2c[nH]cn2)NC(=O)[C@H](C)NC(=O)[C@H](CCC(N)=O)NC(=O)[C@H](CCCNC(=N)N)NC1=O [cyclic 35-mer R2 V3 peptide] (H-CSRPNNNTRKSIPMGPGRAFYTTGQIIGDIRQAHC-OH; disulfide 1-35; N-terminus and C-terminus assumed)
- peptide concentration of maximum inhibitory effect ([1]; Reference 2, clone R2 pseudovirus): approximately 15 μg/ml
- geometric mean inhibitory effect on neutralization by Reference 2 ([1]; peptide 15 μg/ml, ratio of 50% neutralization titers, twelve tests): 3.56
- geometric mean inhibitory effect on neutralization of R2 pseudovirus by MACS sera [2]: 1.9 fold
- geometric mean inhibitory effect on Reference 2 neutralization of MACS envelope pseudoviruses [3]: 1.6 fold
